Laboratory results published in paper PMC7862700.
This is a selection; strong and weak results do not stand in their true shares. At the low end of the ranking the order means little.

Tests used:
Test in all cases: DAPPL (digital affinity profiling via proximity ligation, sequencing)
Conditions in all cases: 10 mM Tris-HCl pH 7.5, 50 mM NaCl, 1 mM DTT, 4% glycerol, room temperature, 30 min; GST-TFs on glutathione beads, 16-mer random dsDNA library, 0.1% …; high values mean tight binding; double strand, one strand shown; scale: fold enrichment (6-mer frequency, TF over GST control)
ELK1 = target: T1, ELK1 (UniProt P19419)
T1 sequence: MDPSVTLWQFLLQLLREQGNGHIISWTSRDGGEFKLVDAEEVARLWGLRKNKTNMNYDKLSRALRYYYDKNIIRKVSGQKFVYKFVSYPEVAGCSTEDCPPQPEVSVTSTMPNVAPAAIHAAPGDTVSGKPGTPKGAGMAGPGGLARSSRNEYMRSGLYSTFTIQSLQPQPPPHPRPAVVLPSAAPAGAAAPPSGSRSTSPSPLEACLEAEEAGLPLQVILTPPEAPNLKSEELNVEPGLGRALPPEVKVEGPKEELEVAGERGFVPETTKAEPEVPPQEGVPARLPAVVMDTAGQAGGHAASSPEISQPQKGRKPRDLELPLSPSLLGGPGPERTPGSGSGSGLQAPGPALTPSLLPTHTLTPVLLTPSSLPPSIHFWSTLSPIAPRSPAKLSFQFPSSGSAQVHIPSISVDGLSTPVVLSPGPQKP

ELK3 = target: T2, ELK3 (UniProt P41970)
T2 sequence: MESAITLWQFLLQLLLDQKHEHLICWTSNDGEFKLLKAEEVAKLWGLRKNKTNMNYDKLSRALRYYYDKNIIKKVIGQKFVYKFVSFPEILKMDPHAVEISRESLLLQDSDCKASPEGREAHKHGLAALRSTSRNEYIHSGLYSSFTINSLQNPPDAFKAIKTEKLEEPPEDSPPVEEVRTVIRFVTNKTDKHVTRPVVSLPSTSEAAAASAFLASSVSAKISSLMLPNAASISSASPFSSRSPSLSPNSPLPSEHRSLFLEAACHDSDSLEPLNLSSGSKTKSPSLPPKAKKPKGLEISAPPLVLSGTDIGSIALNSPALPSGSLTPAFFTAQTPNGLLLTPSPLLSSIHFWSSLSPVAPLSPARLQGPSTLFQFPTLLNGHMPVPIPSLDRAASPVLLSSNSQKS

SPIC = target: T3, SPIC (UniProt Q8N5J4)
T3 sequence: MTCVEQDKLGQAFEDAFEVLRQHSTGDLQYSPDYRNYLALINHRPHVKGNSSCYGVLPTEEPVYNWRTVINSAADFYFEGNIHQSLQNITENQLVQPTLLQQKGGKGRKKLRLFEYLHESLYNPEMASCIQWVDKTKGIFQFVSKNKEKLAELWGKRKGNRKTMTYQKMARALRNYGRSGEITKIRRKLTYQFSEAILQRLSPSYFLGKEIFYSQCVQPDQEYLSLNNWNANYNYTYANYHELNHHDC

ETS2 = target: T4, ETS2 (UniProt P15036)
T4 sequence: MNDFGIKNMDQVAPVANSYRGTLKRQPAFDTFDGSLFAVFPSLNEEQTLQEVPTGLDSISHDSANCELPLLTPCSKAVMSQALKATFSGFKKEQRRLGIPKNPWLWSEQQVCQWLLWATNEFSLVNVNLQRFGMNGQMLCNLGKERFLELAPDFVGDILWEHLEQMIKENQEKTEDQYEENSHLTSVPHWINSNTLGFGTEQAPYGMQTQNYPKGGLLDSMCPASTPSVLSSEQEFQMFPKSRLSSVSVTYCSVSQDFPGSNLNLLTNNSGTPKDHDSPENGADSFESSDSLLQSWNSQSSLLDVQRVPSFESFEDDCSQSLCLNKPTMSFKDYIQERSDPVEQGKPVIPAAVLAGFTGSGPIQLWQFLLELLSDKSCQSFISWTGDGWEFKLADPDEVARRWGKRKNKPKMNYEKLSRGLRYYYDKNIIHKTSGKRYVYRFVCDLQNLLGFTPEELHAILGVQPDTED

ETV3 = target: T5, ETV3 (UniProt P41162-2)
T5 sequence: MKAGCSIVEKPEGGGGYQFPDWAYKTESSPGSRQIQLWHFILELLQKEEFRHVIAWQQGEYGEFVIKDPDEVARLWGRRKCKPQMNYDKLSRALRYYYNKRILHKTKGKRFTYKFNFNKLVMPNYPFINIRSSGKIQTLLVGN

Sequence	binding signal (ELK1)	binding signal (ELK3)	binding signal (SPIC)	binding signal (ETS2)	binding signal (ETV3)
GAGTAG	0.533	0.477	0.516	0.464	0.476
GAGGTT	0.703	0.702	0.605	0.817	0.793
GACGCC	0.82	0.857	0.876	0.801	0.768
CGTCGT	0.921	0.717	0.876	0.875	0.971
GGCCGT	0.392	0.404	0.322	0.402	0.403
CCAGGG	0.579	0.585	0.536	0.593	0.522
ACAGTG	0.468	0.524	0.495	0.499	0.487
CCCAGT	0.64	0.65	0.609	0.606	0.609
CGGAAT	0.924	1.01	0.835	0.97	–
AGTTCA	0.947	0.889	0.964	–	0.915
GTCGAG	0.444	0.422	0.464	0.439	0.43
GATGTG	0.887	0.953	0.931	0.994	–
CCTAGT	0.921	0.8	0.912	–	0.911
TTGAGT	0.759	0.641	0.721	0.675	0.73
AGACAA	0.846	0.792	0.813	0.8	0.784
GAGATA	0.645	0.627	0.651	0.634	0.673
GGTCGA	0.786	0.733	0.775	0.774	0.776
GACGCG	0.597	0.616	0.533	0.593	0.631
TGCAGG	0.914	–	1.01	–	0.957
CGAGCC	0.876	0.84	0.799	0.819	0.916
TTGGAC	0.906	0.964	0.885	0.988	–
GGATCG	0.563	0.657	0.63	0.534	0.571
AGCGGT	0.696	0.692	0.827	0.71	0.702

Given bar-delimited: entries from further up
Sequence | binding signal (ELK1) | binding signal (ELK3) | binding signal (SPIC) | binding signal (ETS2) | binding signal (ETV3)
GTCGAG | 0.444 | 0.422 | 0.464 | 0.439 | 0.43
GATGTG | 0.887 | 0.953 | 0.931 | 0.994 | –
CCTAGT | 0.921 | 0.8 | 0.912 | – | 0.911

Further entries.

Sequence	binding signal (ELK1)	binding signal (ELK3)	binding signal (SPIC)	binding signal (ETS2)	binding signal (ETV3)
GGAATC	0.715	0.732	0.726	0.746	0.847
AGAGCA	0.746	0.785	0.84	0.711	0.75
GGTCAG	0.523	0.535	0.59	0.562	0.553
CGCGGT	0.886	0.787	0.869	0.838	0.858
GGGGAG	0.416	0.409	0.458	0.413	0.413
AGGACT	0.96	0.926	0.816	0.879	–
GTGTGA	0.53	0.591	0.554	0.591	0.606
ACGGGG	0.689	0.669	0.693	0.666	0.667
GGATGA	0.963	0.792	0.97	1.1	–
GGGCCA	0.694	0.657	0.706	0.69	0.749
GAGGAG	0.212	0.26	0.232	0.208	0.217
CAGACA	0.81	0.723	0.803	0.804	0.822
CCCGTG	0.527	0.549	0.438	0.514	0.576
AGGTTG	0.78	0.747	0.856	0.799	0.803
TCGTGC	0.752	0.807	0.748	0.776	0.823
CCAAGG	0.988	0.961	0.766	0.895	0.907
AAGACA	0.979	1.01	0.987	–	0.99
AAGAGA	0.863	0.857	0.874	0.821	0.826
CAACGG	0.887	0.852	0.824	0.898	–
AGAGCG	0.446	0.439	0.46	0.402	0.478
CAGGCT	0.819	0.856	0.777	0.822	0.735
GGGCCG	0.593	0.607	0.605	0.64	0.591
